Test results reported in paper PMC7823470, “Arabidopsis Plant Natriuretic Peptide Is a Novel Interactor of Rubisco Activase” (Life, 2020).

B1: Protochlorophyllide oxidoreductase C (PORC) (enzyme, UniProt O48741 68-401)
chain: QTVTATPPANEASPEQKKTERKGTAVITGASSGLGLATAKALADTGKWHVIMACRNFLKAEKAARSVGMSKEDYTVMHLDLASLESVKQFVENFRRTEQPLDVLVCNAAVYQPTAKEPSFTAEGFEISVGTNHLGHFLLSRLLLDDLKKSDYPSKRMIIVGSITGNTNTLAGNVPPKANLGDLRGLASGLNGQNSSMIDGGEFDGAKAYKDSKVCNMLTMQELHRRYHEETGVTFASLYPGCIATTGLFREHIPLFRLLFPPFQKYITKGYVSEEEAGKRLAQVVSDPSLGKSGVYWSWNNNSSSFENQLSKEASDAEKAKKLWEVSEKLVGLA
B2: Glyceraldehyde-3-phosphate dehydrogenase B subunit (GAPB) (enzyme, UniProt P25857 81-447)
chain: KLKVAINGFGRIGRNFLRCWHGRKDSPLEVVVLNDSGGVKNASHLLKYDSMLGTFKAEVKIVDNETISVDGKLIKVVSNRDPLKLPWAELGIDIVIEGTGVFVDGPGAGKHIQAGASKVIITAPAKGADIPTYVMGVNEQDYGHDVANIISNASCTTNCLAPFAKVLDEEFGIVKGTMTTTHSYTGDQRLLDASHRDLRRARAAALNIVPTSTGAAKAVSLVLPQLKGKLNGIALRVPTPNVSVVDLVINVEKKGLTAEDVNEAFRKAANGPMKGILDVCDAPLVSVDFRCSDVSTTIDSSLTMVMGDDMVKVVAWYDNEWGYSQRVVDLAHLVASKWPGAEAVGSGDPLEDFCKTNPADEECKVYD
B3: Phosphoglycerate kinase 1 (PGK1) (enzyme, UniProt Q9LD57 76-481)
chain: SMAKKSVGDLTSADLKGKKVFVRADLNVPLDDNQTITDDTRIRAAIPTIKYLIENGAKVILSTHLGRPKGVTPKFSLAPLVPRLSELLGIEVTKADDCIGPEVESLVASLPEGGVLLLENVRFYKEEEKNDPEFAKKLASLADLYVNDAFGTAHRAHASTEGVTKFLKPSVAGFLLQKELDYLVGAVSNPKRPFAAIVGGSKVSSKIGVIESLLEKCDILLLGGGMIFTFYKAQGLSVGSSLVEEDKLELATELLAKAKAKGVSLLLPTDVVVADKFAPDANSKIVPASGIEDGWMGLDIGPDSIKTFNEALDTTQTVIWNGPMGVFEMEKFAAGTEAIANKLAELSEKGVTTIIGGGDSVAAVEKVGVAGVMSHISTGGGASLELLEGKVLPGVIALDEAIPVTV

target: T1, pAtPNP-A, N-terminally biotinylated AtPNP-A(33–66) peptide containing the active region of AtPNP-A (Arabidopsis thaliana) (UniProt Q9ZV52); assay: affinity purification with mass spectrometry; N-terminally biotinylated peptide bait incubated 15 min with A. thaliana (Col-0) protein extract, no cross-linker, Dynabeads M-280 for 30 min (biotin-streptavidin), eluate on SDS-PAGE, in-gel trypsin digestion, LC-MS/MS; pScr as negative control; three independent experiments; only the target purified
T1 sequence (peptide, biotin on the N-terminus; two cysteine residues forming a disulfide bond): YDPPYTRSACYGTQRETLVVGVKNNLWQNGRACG

binding, binds:
B1
B2
B3

Results are given in words; binding and its absence hold for the method and conditions named. Binding seen in cells or lysates may run through a third protein. Here binding means that the protein was enriched with, or labelled near, the bait; the list need not be complete.
